Test results: US11840518B2, “Use of bromophenol-pyrazoline compounds for the treatment of feline coronavirus diseases” (Shandong Linghai Biotechnology Co., Ltd., priority 2021, dated 2023)
Some of these results come from one statement about several compounds together.

System: FIPV wild strain in CRFK cells
Assay: Interference with FIPV replication in infected CRFK cells (qRT-PCR of vRNA in supernatant)
Format: cell-based, feline infectious peritonitis virus
Details: 5 μM, CRFK cells infected with wild-type FIPV, 24 hours; FIG. 2
Protocol: To further confirm in vitro enzymatic inhibition results, the inventors evaluated whether the bromophenol-pyrazoline compounds could prevent FIPV replication in clinical wild-type FIPV-infected Crandell-Rees feline kidney (CRFK) cells.
The CRFK cells were cultured with DMEM containing 8% fetal bovine serum in a cell incubator with 5% CO2 at 37° C. When the cells grew to a density of about 80%, the cells were pretreated with 5 μM bromophenol-pyrazoline compounds to be tested for 1 hour, and then an FIPV wild strain (MOI=0.1) was inoculated into the CRFK cells. The CRFK cells inoculated with virus but without the compounds were set up as controls. After 24 hours, a cell supernatant was collected, and vRNA in the supernatant was subject to qRT-PCR analysis.

| SMILES | ability to interfere with the FIPV virus replication |
| --- | --- |
| COc1ccc(C2=NN(C(N)=S)C(c3cc(O)c(O)c(Br)c3Br)C2)cc1 (centres unmarked) [Compound 5] | strong ability to interfere with the FIPV virus replication |
| COC(=O)N1N=C(c2ccc(Oc3cccc(Br)c3)cc2)CC1c1cc(O)c(O)c(O)c1 (centres unmarked) [Compound 7] | strong ability to interfere with the FIPV virus replication |
| O=C1CSC(N2N=C(c3ccc(Oc4ccccc4)cc3)CC2c2ccc(Br)c(O)c2)=N1 (centres unmarked) [Compound 6] | strong ability to interfere with the FIPV virus replication |
| Oc1c(Br)cc(C2CC(c3ccc(Oc4cccc(Br)c4)cc3)=NN2c2nc3ccccc3s2)c(Br)c1O (centres unmarked) [Compound 2] | strong ability to interfere with the FIPV virus replication |
| Oc1ccc(C2CC(c3ccc(Oc4ccccc4Cl)cc3)=NN2Cc2ccccc2)c(O)c1O (centres unmarked) [Compound 4] | strong ability to interfere with the FIPV virus replication |
| CCOc1ccc(Oc2ccc(C3=NN(C=O)C(c4cc(O)c(O)c(Br)c4)C3)cc2)cc1 (centres unmarked) [Compound 3] | strong ability to interfere with the FIPV virus replication |
| CC(=O)N1N=C(c2ccccc2)CC1c1ccc(O)c(O)c1 (centres unmarked) [Compound 1] | strong ability to interfere with the FIPV virus replication |
| COc1c(Br)c(Br)c(C2CC(c3ccccc3O)=NN2)c(Br)c1OC (centres unmarked) [Compound 8] | strong ability to interfere with the FIPV virus replication |
